These are yes or no findings as the source states them, for the method shown. Some binding calls cover weakened binding; strength is not graded here.
How the values were obtained:
[1] = target: purified recombinant hTEM8(ED)-Fc fusion protein, biotinylated (human) (UniProt Q9H6X2); assay: ELISA, Fab on biotinylated human TEM8-Fc
[2] = target: human TEM8 on transfected HEK-293 cells (293/Flag-hTEM8) (human) (UniProt Q9H6X2); assay: immunofluorescence microscopy, 10 ug/ml Fab on HEK-293 cells transfected with human TEM8, against untransfected HEK-293
mouse TEM8 (mouse) [3] = target: mouse TEM8 (mouse) (UniProt Q9CZ52); assay: ELISA, Fab; mouse TEM8 format not described
mouse TEM8 (mouse) [4] = target: mouse TEM8 (mouse) (UniProt Q9CZ52); assay: Figure 1 legend: ELISA; mouse TEM8 format not described
[5] = target: purified recombinant hTEM8(ED)-Fc fusion protein, biotinylated (human) (UniProt Q9H6X2); assay: Figure 1 legend: ELISA on hTEM8(ED)-Fc

The chains behind the UniProt entries cited, without tags or fusion partners. Where a name states a change or a piece, a line headed by the entry shows the natural chain unless it says otherwise. Residues count along the entry.
UniProt Q9H6X2: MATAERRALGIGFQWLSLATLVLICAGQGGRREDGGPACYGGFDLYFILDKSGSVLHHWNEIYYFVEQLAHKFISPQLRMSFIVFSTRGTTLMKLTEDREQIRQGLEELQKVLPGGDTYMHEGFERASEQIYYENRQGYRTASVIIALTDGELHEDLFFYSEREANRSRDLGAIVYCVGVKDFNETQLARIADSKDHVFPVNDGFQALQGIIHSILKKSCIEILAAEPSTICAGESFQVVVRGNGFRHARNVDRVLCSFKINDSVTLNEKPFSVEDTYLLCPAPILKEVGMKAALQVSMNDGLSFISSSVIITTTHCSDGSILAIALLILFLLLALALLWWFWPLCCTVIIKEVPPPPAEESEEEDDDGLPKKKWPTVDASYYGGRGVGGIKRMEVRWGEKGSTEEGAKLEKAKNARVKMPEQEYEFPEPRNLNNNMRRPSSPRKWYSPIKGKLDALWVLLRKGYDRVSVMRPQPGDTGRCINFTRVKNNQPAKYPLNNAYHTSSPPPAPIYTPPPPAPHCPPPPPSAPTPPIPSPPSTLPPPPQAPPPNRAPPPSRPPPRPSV
UniProt Q9CZ52, residues 31-319: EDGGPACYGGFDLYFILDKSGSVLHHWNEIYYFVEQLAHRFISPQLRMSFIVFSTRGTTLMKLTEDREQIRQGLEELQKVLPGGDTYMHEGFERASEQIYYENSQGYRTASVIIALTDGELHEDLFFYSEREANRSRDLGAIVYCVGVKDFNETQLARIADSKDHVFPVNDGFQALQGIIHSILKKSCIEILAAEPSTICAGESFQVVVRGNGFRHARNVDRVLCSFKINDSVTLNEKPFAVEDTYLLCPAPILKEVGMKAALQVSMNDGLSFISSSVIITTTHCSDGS

Measured: binding

B1: L1 Fab fragment (anti-human TEM8) (Fab, V domains shown)
VH: QVQLVESGGGLVQPGGSLRLSCAASGFTFNSYAMSWVRQAPGKGLEWVSLISSGSSTYYADSVKGRFTISRDNSKNTLYLQMNSLRAEDTAVYYCARAGFKFDNWGQGTLVTVSS
VL: DIELTQPPSVSVAPGQTARISCSGDSIPNYSVSWYQQKPGQAPVLVIYADSNRPSGIPERFSGSNSGNTATLTISGTQAEDEADYYCQSYDNTSPDLVFGGGTKLTVLG
binds: [1] | [2] | mouse TEM8 (mouse) [3] | mouse TEM8 (mouse) [4] | [5]

B2: L5 Fab fragment (Anti-human TEM8_cl4) (Fab, V domains shown)
VH: QVQLVESGGGLVQPGGSLRLSCAASGFTFNSYGLSWVRQAPGKGLEWVSNISSNGSYTYYADSVKGRFTISRDNSKNTLYLQMNSLRAEDTAVYYCARAGYGLFDVWGQGTLVTVSS
VL: DIELTQPPSVSVAPGQTARISCSGDKLREYYVHWYQQKPGQAPVLVIYGDNKRPSGIPERFSGSNSGNTATLTISGTQAEDEADYYCSSWAGSRSGTVFGGGTKLTVL
notes: Tested as a purified Fab fragment; The light chain is lambda
binds: mouse TEM8 (mouse) [3] | mouse TEM8 (mouse) [4]
